Paper PMC6436931, “Activation of the Endonuclease that Defines mRNA 3′ Ends Requires Incorporation into an 8-Subunit Core Cleavage and Polyadenylation Factor Complex” (Molecular Cell, 2019)
Read-outs that look alike come from different tables or passages of the source. Results are given in words; binding and its absence hold for the method and conditions named. For some of these results: Binding seen in cells or lysates may run through a third protein. Some entries that bind do so weakly or less than the wild type. For some of these results: Where a sequence is shown, tags or fusion partners need not be part of it.

Amino acid sequences for entries named in this document (tags omitted).
UniProt P29468: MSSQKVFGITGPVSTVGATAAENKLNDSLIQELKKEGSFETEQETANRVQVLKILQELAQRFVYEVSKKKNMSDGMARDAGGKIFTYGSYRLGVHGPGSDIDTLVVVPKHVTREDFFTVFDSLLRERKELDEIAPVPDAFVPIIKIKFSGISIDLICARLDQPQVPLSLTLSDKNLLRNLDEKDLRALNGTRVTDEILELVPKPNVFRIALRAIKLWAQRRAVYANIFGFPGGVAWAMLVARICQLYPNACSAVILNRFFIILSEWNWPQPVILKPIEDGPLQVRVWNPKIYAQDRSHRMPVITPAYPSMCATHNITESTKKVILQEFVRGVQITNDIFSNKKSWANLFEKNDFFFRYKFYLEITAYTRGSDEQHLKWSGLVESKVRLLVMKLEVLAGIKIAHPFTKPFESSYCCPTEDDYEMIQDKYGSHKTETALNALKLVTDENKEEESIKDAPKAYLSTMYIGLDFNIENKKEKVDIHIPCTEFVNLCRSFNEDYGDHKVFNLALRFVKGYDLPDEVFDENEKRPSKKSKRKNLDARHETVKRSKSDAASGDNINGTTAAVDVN

Assays:
[1] = target: T1, Pfs2-3C-SII (S. cerevisiae) (UniProt P42841); experiment: co-purification (StrepTactin affinity, anion exchange, size exclusion chromatography); subunits co-expressed in Sf9 cells; complex captured by the one StrepII-tagged subunit, Mono Q 100-1000 mM NaCl gradient, Superose 6 Increase in 10 mM HEPES pH 7.9, 150 mM NaCl, 1.0 mM TCEP; SDS-PAGE; both purified
T1 sequence: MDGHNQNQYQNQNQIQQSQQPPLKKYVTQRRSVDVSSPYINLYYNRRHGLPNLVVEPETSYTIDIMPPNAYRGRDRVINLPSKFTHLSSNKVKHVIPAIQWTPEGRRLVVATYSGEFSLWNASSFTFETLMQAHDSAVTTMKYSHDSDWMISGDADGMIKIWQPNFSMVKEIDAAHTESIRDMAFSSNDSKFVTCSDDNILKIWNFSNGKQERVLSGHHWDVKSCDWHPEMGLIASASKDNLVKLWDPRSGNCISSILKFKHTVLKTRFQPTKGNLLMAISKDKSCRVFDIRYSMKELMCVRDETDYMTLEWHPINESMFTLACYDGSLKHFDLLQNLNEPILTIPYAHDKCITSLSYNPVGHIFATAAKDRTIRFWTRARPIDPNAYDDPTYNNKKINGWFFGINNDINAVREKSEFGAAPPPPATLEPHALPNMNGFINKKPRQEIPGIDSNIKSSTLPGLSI

[2] = target: T2, Ysh1 (full length, untagged) (S. cerevisiae) (UniProt Q06224); experiment: as above
T2 sequence: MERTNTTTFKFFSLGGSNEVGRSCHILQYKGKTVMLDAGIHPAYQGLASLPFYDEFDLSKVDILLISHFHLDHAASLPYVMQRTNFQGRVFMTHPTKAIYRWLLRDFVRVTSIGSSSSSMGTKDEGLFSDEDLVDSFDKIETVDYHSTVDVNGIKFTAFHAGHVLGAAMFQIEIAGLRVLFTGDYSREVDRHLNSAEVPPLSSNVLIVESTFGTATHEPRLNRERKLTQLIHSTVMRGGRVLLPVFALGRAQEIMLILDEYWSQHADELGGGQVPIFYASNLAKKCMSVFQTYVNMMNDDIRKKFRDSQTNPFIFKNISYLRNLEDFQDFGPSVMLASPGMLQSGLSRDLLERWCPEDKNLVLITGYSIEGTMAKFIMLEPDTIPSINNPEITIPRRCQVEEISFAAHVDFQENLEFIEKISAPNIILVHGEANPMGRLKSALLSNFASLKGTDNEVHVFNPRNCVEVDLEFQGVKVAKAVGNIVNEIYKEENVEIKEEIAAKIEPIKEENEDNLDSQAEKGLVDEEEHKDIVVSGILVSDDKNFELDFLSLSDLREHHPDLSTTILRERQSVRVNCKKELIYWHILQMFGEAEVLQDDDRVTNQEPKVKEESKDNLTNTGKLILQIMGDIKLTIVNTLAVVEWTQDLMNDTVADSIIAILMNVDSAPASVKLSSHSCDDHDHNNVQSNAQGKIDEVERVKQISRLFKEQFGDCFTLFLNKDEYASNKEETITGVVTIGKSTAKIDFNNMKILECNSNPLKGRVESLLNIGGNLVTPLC

[3] = target: T2, Ysh1 (full length, untagged) (S. cerevisiae); experiment: HDX-MS; purified Ysh1-Mpe1, Ysh1-Yjr141w and Ysh1-Mpe1-Yjr141w complexes; ~95% D2O, 10 mM HEPES pH 7.9, 150 mM NaCl, 1 mM TCEP, 23°C; 0.3, 3, 30 and 300 s in triplicate; difference plots of Ysh1 peptides with and without a partner; both purified
[4] = target: T2, Ysh1 (full length, untagged) (S. cerevisiae); experiment: cross-linking; purified Ysh1-Mpe1, Ysh1-Yjr141w and Ysh1-Mpe1-Yjr141w complexes cross-linked with DSBU (BuUrBu) or DSS H12/D12, 45 min, 37°C, 100- or 50-fold excess; trypsin digest, LC-MS/MS; both purified
[5] = target: T1, Pfs2-3C-SII (S. cerevisiae); experiment: co-purification (StrepTactin affinity, anion exchange, size exclusion chromatography); subunits co-expressed in Sf9 cells; complex captured by the one StrepII-tagged subunit, Mono Q 100-1000 mM NaCl gradient, Superose 6 Increase in 10 mM HEPES pH 7.9, 150 mM NaCl, 1.0 mM TCEP; SDS-PAGE; both purified; remark: listed apart in the source
[6] = target: T3, Mpe1-3C-SII (full length, C-terminal StrepII tag) (S. cerevisiae) (UniProt P35728); experiment: anion exchange chromatography; complexes identified by the Strep-Tactin pull-down subjected to anion exchange chromatography; SDS-PAGE of what stayed associated; both purified
T3 sequence: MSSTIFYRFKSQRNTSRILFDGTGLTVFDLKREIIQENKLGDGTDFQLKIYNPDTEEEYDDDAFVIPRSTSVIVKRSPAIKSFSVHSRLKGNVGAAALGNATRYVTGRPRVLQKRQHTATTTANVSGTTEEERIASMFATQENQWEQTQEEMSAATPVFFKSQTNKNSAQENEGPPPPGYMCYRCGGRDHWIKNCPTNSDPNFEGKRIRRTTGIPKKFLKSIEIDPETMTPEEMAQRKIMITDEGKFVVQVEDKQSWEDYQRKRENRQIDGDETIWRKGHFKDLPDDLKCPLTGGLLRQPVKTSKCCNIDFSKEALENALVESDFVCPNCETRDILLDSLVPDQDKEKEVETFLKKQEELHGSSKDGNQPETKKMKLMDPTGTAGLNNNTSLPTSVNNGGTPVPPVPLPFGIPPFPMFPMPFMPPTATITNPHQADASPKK

[7] = target: T3, Mpe1-3C-SII (full length, C-terminal StrepII tag) (S. cerevisiae); experiment: pull-down; pairs of Ysh1 and Mpe1 constructs co-expressed with full-length Cft2 in insect cells (baculovirus); StrepII-tagged Mpe1 constructs captured from cell lysates on Strep-Tactin resin; SDS-PAGE

Molecule: Pap1 (untagged, in CPF_(core)) (from UniProt P29468 1-568) (enzyme)
- binding [1]: binds

B1: Yjr141w (untagged, in the Ysh1-Mpe1-Yjr141w trimer) (protein, UniProt P47172 1-347)
chain: MVQYVVEWLPRIQSISVVVEGWKQVEIKNLKDTLMSISGDEEQVEDILLPVEVEEKVDASYKFKNRGKDLEWMTKLRSKSSKIYDSSIMSLPDGRWTKEELRSDSDFSIECLNCKQKIISKDNCQVLNDMPSEFWFELMDYWHCHKPDVKEDKSSYTRFETLKPSKNEILIGSSYFQGTPATFENVATTKENDNVLCIKCSAVLGQVTAGSLYKLHKWKLQLIRSGNTYKFPPECDITISLINVVKANSCRYVLVKCKTESLLVWIFSVDIGVTLTGNKSFKRAMKLLYTNSVTTINRCLNRQVVEELDFQETSFNAFYSALQHTNALLPSSMKKIGEWTISYTSLI
- binding [2]: binds
- binding [3]: binds
- binding [4]: binds

B2: Cft1 (protein, UniProt Q06632 1-1357)
chain: MNVYDDVLDATVVSHSLATHFTTSDYEELLVVRTNILSVYRPTRDGKLYLTDEFKFHGLITDIGLIPQKDSPLSCLLLCTGVAKISILKFNTLTNSIDTLSLHYYEGKFKGKSLVELAKISTLRMDPGSSCALLFNNDIIAFLPFHVNKNDDDEEEEDEDENIDDSELIHSMNQKSQGTNTFNKRKRTKLGDKFTAPSVVLVASELYEGAKNIIDIQFLKNFTKPTIALLYQPKLVWAGNTTISKLPTQYVILTLNIQPAESATKIESTTIAFVKELPWDLHTIVPVSNGAIIVGTNELAFLDNTGVLQSTVLLNSFADKELQKTKIINNSSLEIMFREKNTTSIWIPSSKSKNGGSNNDETLLLMDLKSNIYYIQMEAEGRLLIKFDIFKLPIVNDLLKENSNPKCITRLNATNSNKNMDLFIGFGSGNALVLRLNNLKSTIETREAHNPSSGTNSLMDINDDDDEEMDDLYADEAPENGLTTNDSKGTVETVQPFDIELLSSLRNVGPITSLTVGKVSSIDDVVKGLPNPNKNEYSLVATSGNGSGSHLTVIQTSVQPEIELALKFISITQIWNLKIKGRDRYLITTDSTKSRSDIYESDNNFKLHKGGRLRRDATTVYISMFGEEKRIIQVTTNHLYLYDTHFRRLTTIKFDYEVIHVSVMDPYILVTVSRGDIKIFELEEKNKRKLLKVDLPEILNEMVITSGLILKSNMCNEFLIGLSKSQEEQLLFTFVTADNQIIFFTKDHNDRIFQLNGVDQLNESLYISTYQLGDEIVPDPSIKQVMINKLGHDNKEEYLTILTFGGEIYQYRKLPQRRSRFYRNVTRNDLAITGAPDNAYAKGVSSIERIMHYFPDYNGYSVIFVTGSVPYILIKEDDSTPKIFKFGNIPLVSVTPWSERSVMCVDDIKNARVYTLTTDNMYYGNKLPLKQIKISNVLDDYKTLQKLVYHERAQLFLVSYCKRVPYEALGEDGEKVIGYDENVPHAEGFQSGILLINPKSWKVIDKIDFPKNSVVNEMRSSMIQINSKTKRKREYIIAGVANATTEDTPPTGAFHIYDVIEVVPEPGKPDTNYKLKEIFQEEVSGTVSTVCEVSGRFMISQSQKVLVRDIQEDNSVIPVAFLDIPVFVTDSKSFGNLLIIGDAMQGFQFIGFDAEPYRMISLGRSMSKFQTMSLEFLVNGGDMYFAATDADRNVHVLKYAPDEPNSLSGQRLVHCSSFTLHSTNSCMMLLPRNEEFGSPQVPSFQNVGGQVDGSVFKIVPLSEEKYRRLYVIQQQIIDRELQLGGLNPRMERLANDFYQMGHSMRPMLDFNVIRRFCGLAIDRRKSIAQKAGRHAHFEAWRDIINIEFSMRSLCQGK
- binding [5]: binds

B3: Yth1-3C-8H (protein, UniProt Q06102 1-208)
chain: MSLIHPDTAKYPFKFEPFLRQEYSFSLDPDRPICEFYNSREGPKSCPRGPLCPKKHVLPIFQNKIVCRHWLRGLCKKNDQCEYLHEYNLRKMPECVFFSKNGYCTQSPDCQYLHIDPASKIPKCENYEMGFCPLGSSCPRRHIKKVFCQRYMTGFCPLGKDECDMEHPQFIIPDEGSKLRIKRDDEINTRKMDEEKERRLNAIINGEV
- binding [5]: binds

B4: Fip1 (protein, UniProt P45976 1-327)
chain: MSSSEDEDDKFLYGSDSELALPSSKRSRDDEADAGASSNPDIVKRQKFDSPVEETPATARDDRSDEDIYSDSSDDDSDSDLEVIISLGPDPTRLDAKLLDSYSTAATSSSKDVISVATDVSNTITKTSDERLITEGEANQGVTATTVKATESDGNVPKAMTGSIDLDKEGIFDSVGITTIDPEVLKEKPWRQPGANLSDYFNYGFNEFTWMEYLHRQEKLQQDYNPRRILMGLLSLQQQGKLNSANDTDSNLGNIIDNNNNVNNANMSNLNSNMGNSMSGTPNPPAPPMHPSFPPLPMFGSFPPFPMPGMMPPMNQQPNQNQNQNSK
- binding [5]: binds

B5: Mpe1 (untagged, in CPF_(core)) (protein, UniProt P35728 1-441)
chain: MSSTIFYRFKSQRNTSRILFDGTGLTVFDLKREIIQENKLGDGTDFQLKIYNPDTEEEYDDDAFVIPRSTSVIVKRSPAIKSFSVHSRLKGNVGAAALGNATRYVTGRPRVLQKRQHTATTTANVSGTTEEERIASMFATQENQWEQTQEEMSAATPVFFKSQTNKNSAQENEGPPPPGYMCYRCGGRDHWIKNCPTNSDPNFEGKRIRRTTGIPKKFLKSIEIDPETMTPEEMAQRKIMITDEGKFVVQVEDKQSWEDYQRKRENRQIDGDETIWRKGHFKDLPDDLKCPLTGGLLRQPVKTSKCCNIDFSKEALENALVESDFVCPNCETRDILLDSLVPDQDKEKEVETFLKKQEELHGSSKDGNQPETKKMKLMDPTGTAGLNNNTSLPTSVNNGGTPVPPVPLPFGIPPFPMFPMPFMPPTATITNPHQADASPKK
- binding [5]: binds

B6: Ysh1-N (1-474), N-terminal catalytic domain (domain or fragment, UniProt Q06224 1-474)
chain: MERTNTTTFKFFSLGGSNEVGRSCHILQYKGKTVMLDAGIHPAYQGLASLPFYDEFDLSKVDILLISHFHLDHAASLPYVMQRTNFQGRVFMTHPTKAIYRWLLRDFVRVTSIGSSSSSMGTKDEGLFSDEDLVDSFDKIETVDYHSTVDVNGIKFTAFHAGHVLGAAMFQIEIAGLRVLFTGDYSREVDRHLNSAEVPPLSSNVLIVESTFGTATHEPRLNRERKLTQLIHSTVMRGGRVLLPVFALGRAQEIMLILDEYWSQHADELGGGQVPIFYASNLAKKCMSVFQTYVNMMNDDIRKKFRDSQTNPFIFKNISYLRNLEDFQDFGPSVMLASPGMLQSGLSRDLLERWCPEDKNLVLITGYSIEGTMAKFIMLEPDTIPSINNPEITIPRRCQVEEISFAAHVDFQENLEFIEKISAPNIILVHGEANPMGRLKSALLSNFASLKGTDNEVHVFNPRNCVEVDLEFQG
- binding [6]: binds
- binding [7]: binds
